{"source": "patent US5955506A", "about": "“Benzamides for neurodegenerative disorder treatment” (priority 1998, dated 1999)", "system": "rat embryonic hippocampal neuronal/astrocytes cultures", "assay": "Protection against amyloid β(25-35)-induced neuronal cell loss", "format": "cell-based, Sprague Dawley rat", "conditions": "100 μM benzamide, 30 μM Aβ(25-35), 96 hours", "note": "The name of at least one read-out is uncertain.", "data": [{"substance": "N-methylcyclopropyl-4-acetamidobenzamide [CPI1241]", "values": [{"measurement": "% Protection, Aβ (25-35)", "result": 10, "unit": "%"}]}, {"substance": "N-methylcyclopropyl-4-aminobenzamide [CPI1240]", "values": [{"measurement": "% Protection, Aβ (25-35)", "result": 23, "unit": "%"}]}]}
